In the supplement of paper PMC7661543:
± gives the standard deviation of the averaged measurements. Differences between knockout arms are mostly noise.

Tested on: BT-20
Assay: relative cell number vs DMSO control (72 h) (% of DMSO); higher = less growth inhibition (more cells)
Procedure: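 QMAP-Seq: a pool of 5 breast cancer cell lines (ZR-75-1, SKBR3, HCC-38, MDA-MB-231, BT-20), each carrying 12 doxycycline-inducible Cas9 sgRNA perturbations (11 knockouts plus non-targeting sgNT), was treated with compounds for 72 h at four 10-fold doses (10 nM-10 uM or 1 nM-1 uM range). Barcodes were amplified and sequenced, and cell number was interpolated from 293T spike-in standard curves. The result is expressed as % of the median of DMSO wells. Two biological replicates.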

[1] = sgRNA knockout: sgATF3, 1000 nM
[2] = sgRNA knockout: sgATF3, 10000 nM
[3] = sgRNA knockout: sgATF4, 1000 nM
[4] = sgRNA knockout: sgATF4, 10000 nM
[5] = sgRNA knockout: sgATF6, 1000 nM
[6] = sgRNA knockout: sgATF6, 10000 nM
[7] = sgRNA knockout: sgATG7, 1000 nM
[8] = sgRNA knockout: sgATG7, 10000 nM
[9] = sgRNA knockout: sgERN1, 1000 nM
[10] = sgRNA knockout: sgERN1, 10000 nM
[11] = sgRNA knockout: sgHSF1, 1000 nM
[12] = sgRNA knockout: sgHSF1, 10000 nM
[13] = sgRNA knockout: sgHSF2, 1000 nM
[14] = sgRNA knockout: sgHSF2, 10000 nM
[15] = sgRNA knockout: sgKEAP1, 100 nM
[16] = sgRNA knockout: sgKEAP1, 1000 nM
[17] = sgRNA knockout: sgKEAP1, 10000 nM
[18] = sgRNA knockout: sgNFE2L2, 10 nM
[19] = sgRNA knockout: sgNFE2L2, 100 nM
[20] = sgRNA knockout: sgNFE2L2, 1000 nM
[21] = sgRNA knockout: sgNFE2L2, 10000 nM
[22] = sgRNA knockout: sgSLC35F2, 10 nM
[23] = sgRNA knockout: sgSLC35F2, 100 nM
[24] = sgRNA knockout: sgSLC35F2, 1000 nM
[25] = sgRNA knockout: sgSLC35F2, 10000 nM
[26] = sgRNA knockout: sgXBP1, 1000 nM
[27] = sgRNA knockout: sgXBP1, 10000 nM

Compound: COc1cc2nc(N3CCCN(C)CC3)nc(NC3CCN(Cc4ccccc4)CC3)c2cc1OC
- relative cell number (sgRNA knockout: sgATF3, 10 nM): 108 ± 20
- relative cell number (sgRNA knockout: sgATF3, 100 nM): 90.1 ± 3.5
- relative cell number [1]: 72.2 ± 4.8
- relative cell number [2]: 7.18 ± 3.7
- relative cell number (sgRNA knockout: sgATF4, 10 nM): 99.8 ± 26
- relative cell number (sgRNA knockout: sgATF4, 100 nM): 99.1 ± 2.5
- relative cell number [3]: 104 ± 1
- relative cell number [4]: 8.88 ± 6.2
- relative cell number (sgRNA knockout: sgATF6, 10 nM): 101 ± 14
- relative cell number (sgRNA knockout: sgATF6, 100 nM): 87.1 ± 6.9
- relative cell number [5]: 82.3 ± 7.6
- relative cell number [6]: 4.61 ± 2
- relative cell number (sgRNA knockout: sgATG7, 10 nM): 105 ± 24
- relative cell number (sgRNA knockout: sgATG7, 100 nM): 99.4 ± 15
- relative cell number [7]: 83.5 ± 6.4
- relative cell number [8]: 8.35 ± 2.6
- relative cell number (sgRNA knockout: sgERN1, 10 nM): 94.7 ± 4
- relative cell number (sgRNA knockout: sgERN1, 100 nM): 83 ± 2.3
- relative cell number [9]: 82.9 ± 17
- relative cell number [10]: 5.77 ± 1.7
- relative cell number (sgRNA knockout: sgHSF1, 10 nM): 102 ± 19
- relative cell number (sgRNA knockout: sgHSF1, 100 nM): 100.9 ± 0.25
- relative cell number [11]: 92 ± 21
- relative cell number [12]: 9.4 ± 5.1
- relative cell number (sgRNA knockout: sgHSF2, 10 nM): 81.5 ± 21
- relative cell number (sgRNA knockout: sgHSF2, 100 nM): 78 ± 6.5
- relative cell number [13]: 89.1 ± 20
- relative cell number [14]: 5.95 ± 3.4
- relative cell number (sgRNA knockout: sgKEAP1, 10 nM): 109 ± 1.3
- relative cell number [15]: 88.7 ± 7.6
- relative cell number [16]: 92.6 ± 12
- relative cell number [17]: 9.75 ± 5.8
- relative cell number [18]: 88.6 ± 15
- relative cell number [19]: 112 ± 17
- relative cell number [20]: 102 ± 29
- relative cell number [21]: 8.62 ± 3.4
- relative cell number [22]: 91.3 ± 20
- relative cell number [23]: 98.2 ± 25
- relative cell number [24]: 82.1 ± 15
- relative cell number [25]: 11.6 ± 8
- relative cell number (sgRNA knockout: sgXBP1, 10 nM): 99 ± 13
- relative cell number (sgRNA knockout: sgXBP1, 100 nM): 100.8 ± 0.31
- relative cell number [26]: 90.5 ± 24
- relative cell number [27]: 10.6 ± 5.9

Compound: Cc1ccc(Nc2nccc(N(C)c3ccc4c(C)n(C)nc4c3)n2)cc1S(N)(=O)=O [Pazopanib]
- relative cell number (sgRNA knockout: sgATF3, 10 nM): 93 ± 6.3
- relative cell number (sgRNA knockout: sgATF3, 100 nM): 89.7 ± 6.8
- relative cell number [1]: 95.6 ± 14
- relative cell number [2]: 75.7 ± 9.1
- relative cell number (sgRNA knockout: sgATF4, 10 nM): 108 ± 4.9
- relative cell number (sgRNA knockout: sgATF4, 100 nM): 100 ± 16
- relative cell number [3]: 88.9 ± 5.6
- relative cell number [4]: 84 ± 20
- relative cell number (sgRNA knockout: sgATF6, 10 nM): 94.2 ± 12
- relative cell number (sgRNA knockout: sgATF6, 100 nM): 97.2 ± 11
- relative cell number [5]: 106 ± 16
- relative cell number [6]: 67.2 ± 12
- relative cell number (sgRNA knockout: sgATG7, 10 nM): 96.5 ± 6.5
- relative cell number (sgRNA knockout: sgATG7, 100 nM): 92.2 ± 20
- relative cell number [7]: 87.6 ± 4
- relative cell number [8]: 73.9 ± 3.6
- relative cell number (sgRNA knockout: sgERN1, 10 nM): 101 ± 5.2
- relative cell number (sgRNA knockout: sgERN1, 100 nM): 89.9 ± 15
- relative cell number [9]: 94.84 ± 0.88
- relative cell number [10]: 77.1 ± 4.2
- relative cell number (sgRNA knockout: sgHSF1, 10 nM): 106 ± 2.9
- relative cell number (sgRNA knockout: sgHSF1, 100 nM): 91.925 ± 0.048
- relative cell number [11]: 108 ± 16
- relative cell number [12]: 78.5 ± 19
- relative cell number (sgRNA knockout: sgHSF2, 10 nM): 96.6 ± 13
- relative cell number (sgRNA knockout: sgHSF2, 100 nM): 102 ± 14
- relative cell number [13]: 112 ± 3.4
- relative cell number [14]: 76.6 ± 11
- relative cell number (sgRNA knockout: sgKEAP1, 10 nM): 100 ± 4.6
- relative cell number [15]: 91.7 ± 16
- relative cell number [16]: 102 ± 1.4
- relative cell number [17]: 82.8 ± 11
- relative cell number [18]: 84.4 ± 16
- relative cell number [19]: 85.9 ± 3.5
- relative cell number [20]: 93 ± 16
- relative cell number [21]: 76.9 ± 19
- relative cell number [22]: 104 ± 19
- relative cell number [23]: 99.8 ± 14
- relative cell number [24]: 105 ± 14
- relative cell number [25]: 79.4 ± 20
- relative cell number (sgRNA knockout: sgXBP1, 10 nM): 103 ± 9.4
- relative cell number (sgRNA knockout: sgXBP1, 100 nM): 91.5 ± 6.2
- relative cell number [26]: 113 ± 6.6
- relative cell number [27]: 81.2 ± 6.6

Compound: C=CCn1c(=O)c2cnc(Nc3ccc(N4CCN(C)CC4)cc3)nc2n1-c1cccc(C(C)(C)O)n1 [MK1775]
- relative cell number (sgRNA knockout: sgATF3, 10 nM): 95.4 ± 20
- relative cell number (sgRNA knockout: sgATF3, 100 nM): 106 ± 15
- relative cell number [1]: 44 ± 9.3
- relative cell number [2]: 27 ± 3
- relative cell number (sgRNA knockout: sgATF4, 10 nM): 70.5 ± 25
- relative cell number (sgRNA knockout: sgATF4, 100 nM): 84.4 ± 1.2
- relative cell number [3]: 44.5 ± 3.3
- relative cell number [4]: 32.9 ± 3.5
- relative cell number (sgRNA knockout: sgATF6, 10 nM): 91.6 ± 4.9
- relative cell number (sgRNA knockout: sgATF6, 100 nM): 93.98 ± 0.41
- relative cell number [5]: 45.7 ± 2.7
- relative cell number [6]: 27.7 ± 0.32
- relative cell number (sgRNA knockout: sgATG7, 10 nM): 96.3 ± 7.2
- relative cell number (sgRNA knockout: sgATG7, 100 nM): 83.3 ± 5
- relative cell number [7]: 38.5 ± 3.8
- relative cell number [8]: 27.9 ± 4.3
- relative cell number (sgRNA knockout: sgERN1, 10 nM): 89.2 ± 2
- relative cell number (sgRNA knockout: sgERN1, 100 nM): 95.5 ± 6
- relative cell number [9]: 38.8 ± 3.5
- relative cell number [10]: 26.5 ± 2.5
- relative cell number (sgRNA knockout: sgHSF1, 10 nM): 77.6 ± 4.1
- relative cell number (sgRNA knockout: sgHSF1, 100 nM): 91.1 ± 7.6
- relative cell number [11]: 41.5 ± 0.99
- relative cell number [12]: 27.7 ± 5.5
- relative cell number (sgRNA knockout: sgHSF2, 10 nM): 94.1 ± 20
- relative cell number (sgRNA knockout: sgHSF2, 100 nM): 84.5 ± 35
- relative cell number [13]: 38.6 ± 5.6
- relative cell number [14]: 27.4 ± 6.4
- relative cell number (sgRNA knockout: sgKEAP1, 10 nM): 90.06 ± 0.3
- relative cell number [15]: 90 ± 3.6
- relative cell number [16]: 36.424 ± 0.031
- relative cell number [17]: 24.4 ± 7.6
- relative cell number [18]: 86.9 ± 26
- relative cell number [19]: 101.9 ± 0.54
- relative cell number [20]: 35.2 ± 5.7
- relative cell number [21]: 24 ± 1.1
- relative cell number [22]: 82 ± 9.8
- relative cell number [23]: 93.1 ± 3.3
- relative cell number [24]: 34.8 ± 7.1
- relative cell number [25]: 26.6 ± 12
- relative cell number (sgRNA knockout: sgXBP1, 10 nM): 89.7 ± 1.3
- relative cell number (sgRNA knockout: sgXBP1, 100 nM): 91.2 ± 2.5
- relative cell number [26]: 41.1 ± 4.5
- relative cell number [27]: 27.8 ± 0.72
